Test results published in publication PMC7226988.
Results are given in words; binding and its absence hold for the method and conditions named. In cells and extracts the contact can be indirect. A yes stands for co-enrichment or nearness to the bait. Other partners may have been found. Where a sequence is shown, tags or fusion partners need not be part of it.

T1: HA-tagged human sodium taurocholate cotransporting polypeptide (HA-hNTCP), stably expressed in HepG2 cells (human) (UniProt Q14973)
T1 sequence: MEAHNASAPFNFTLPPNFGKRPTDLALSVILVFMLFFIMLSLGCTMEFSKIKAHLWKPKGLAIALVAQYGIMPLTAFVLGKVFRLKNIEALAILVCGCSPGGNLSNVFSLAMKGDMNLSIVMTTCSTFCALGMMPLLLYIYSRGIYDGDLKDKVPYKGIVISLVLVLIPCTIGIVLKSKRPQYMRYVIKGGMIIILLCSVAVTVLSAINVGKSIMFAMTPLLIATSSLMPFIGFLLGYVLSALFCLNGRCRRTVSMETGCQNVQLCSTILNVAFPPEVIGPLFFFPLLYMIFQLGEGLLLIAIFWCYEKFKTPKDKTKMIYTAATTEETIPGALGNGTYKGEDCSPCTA


Target: T1, HA-tagged human sodium taurocholate cotransporting polypeptide (HA-hNTCP), stably expressed in HepG2 cells (human)
Experiment: affinity purification with mass spectrometry; total lysates of HepG2 cells expressing HA-hNTCP or parental cells, immunoprecipitation with anti-HA coupled beads, label-free quantitative LC-MS/MS, N = 4

binding | Binder
binds | chloride channel CLIC-like 1 (CLCC1), endogenous in HepG2 cells (protein, UniProt Q96S66 19-551) HDDDWIDPTDMLNYDAASGTMRKSQAKYGISGEKDVSPDLSCADEISECYHKLDSLTYKIDECEKKKREDYESQSNPVFRRYLNKILIEAGKLGLPDENKGDMHYDAEIILKRETLLEIQKFLNGEDWKPGALDDALSDILINFKFHDFETWKWRFEDSFGVDPYNVLMVLLCLLCIVVLVATELWTYVRWYTQLRRVLIISFLFSLGWNWMYLYKLAFAQHQAEVAKMEPLNNVCAKKMDWTGSIWEWFRSSWTYKDDPCQKYYELLLVNPIWLVPPTKALAVTFTTFVTEPLKHIGKGTGEFIKALMKEIPALLHLPVLIIMALAILSFCYGAGKSVHVLRHIGGPESEPPQALRPRDRRRQEEIDYRPDGGAGDADFHYRGQMGPTEQGPYAKTYEGRREILRERDVDLRFQTGNKSPEVLRAFDVPDAEAREHPTVVPSHKSPVLDTKPKETGGILGEGTPKESSTESSQSAKPVSGQDTSGNTEGSPAAEKAQLKSEAAGSPDQGSTYSPARGVAGPRGQDPVSSPCG
binds | stomatin, endogenous in HepG2 cells (protein, UniProt P27105 1-288) MAEKRHTRDSEAQRLPDSFKDSPSKGLGPCGWILVAFSFLFTVITFPISIWMCIKIIKEYERAIIFRLGRILQGGAKGPGLFFILPCTDSFIKVDMRTISFDIPPQEILTKDSVTISVDGVVYYRVQNATLAVANITNADSATRLLAQTTLRNVLGTKNLSQILSDREEIAHNMQSTLDDATDAWGIKVERVEIKDVKLPVQLQRAMAAEAEASREARAKVIAAEGEMNASRALKEASMVITESPAALQLRYLQTLTTIAAEKNSTIVFPLPIDMLQGIIGAKHSHLG
